Data source: PubChem BioAssay AID743121 (NCATS, 2013)
This is an unselected part of about 26,000 reagents tested. Of all reagents, 167 (0.63%) are marked active. 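Calls are per gene from RSA p-values that are not deposited; an individual active-marked siRNA can sensitise only weakly.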 Reagents against one gene are numbered here. Not all columns of the deposit are shown.

Purpose: 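Genes whose silencing strengthens cell killing by camptothecin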 (primary screen)
Cells: MDA-MB-231 cells, a human breast cancer line
Reagents: single siRNA against human genes, 20 nM siRNA (0.8 pmol per well)
Timing: 120 h (drug added 48 h after transfection, read 72 h later)
Treatment: camptothecin 20 nM (about EC30) for 72 h; vehicle 0.1% DMSO in parallel plates
Measurement: 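CellTiter-Glo ATP signal, scaled to control siRNA as percent viability; sensitisation given as log2 of untreated divided by camptothecin-treated viability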
Scale: log2 vehicle/camptothecin viability: higher = stronger sensitisation to camptothecin; viability with camptothecin: higher = more viable cells
Hit rule: 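Active genes have an RSA gene-level p-value below 0.001, computed from the ratios of their separate siRNAs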

CTSA #1 | log2 vehicle/camptothecin viability = -0.471; viability with camptothecin (% of control) = 87.1; Outcome = inactive
CTSA #2 | log2 vehicle/camptothecin viability = 0.145; viability with camptothecin (% of control) = 72.8; Outcome = inactive
CTSA #3 | log2 vehicle/camptothecin viability = -0.282; viability with camptothecin (% of control) = 25.2; Outcome = inactive
MYO3B #1 | log2 vehicle/camptothecin viability = -0.321; viability with camptothecin (% of control) = 65.7; Outcome = inactive
MYO3B #2 | log2 vehicle/camptothecin viability = -0.223; viability with camptothecin (% of control) = 82.2; Outcome = inactive
MYO3B #3 | log2 vehicle/camptothecin viability = -0.364; viability with camptothecin (% of control) = 97.6; Outcome = inactive
MYO3B #4 | log2 vehicle/camptothecin viability = -0.326; viability with camptothecin (% of control) = 117; Outcome = inactive
ETNK2 #1 | log2 vehicle/camptothecin viability = -0.522; viability with camptothecin (% of control) = 78.3; Outcome = inactive
ETNK2 #2 | log2 vehicle/camptothecin viability = 0.166; viability with camptothecin (% of control) = 76.4; Outcome = inactive
ETNK2 #3 | log2 vehicle/camptothecin viability = 0.194; viability with camptothecin (% of control) = 61.5; Outcome = inactive
ETNK2 #4 | log2 vehicle/camptothecin viability = -0.469; viability with camptothecin (% of control) = 118; Outcome = inactive
CENPM #1 | log2 vehicle/camptothecin viability = 0.588; viability with camptothecin (% of control) = 22.2; Outcome = inactive
CENPM #2 | log2 vehicle/camptothecin viability = -0.0432; viability with camptothecin (% of control) = 85.5; Outcome = inactive
CENPM #3 | log2 vehicle/camptothecin viability = -0.0857; viability with camptothecin (% of control) = 93.6; Outcome = inactive
CENPM #4 | log2 vehicle/camptothecin viability = -0.217; viability with camptothecin (% of control) = 101; Outcome = inactive
VN1R5 #1 | log2 vehicle/camptothecin viability = -0.753; viability with camptothecin (% of control) = 79.7; Outcome = inactive
VN1R5 #2 | log2 vehicle/camptothecin viability = -0.0939; viability with camptothecin (% of control) = 45; Outcome = inactive
VN1R5 #3 | log2 vehicle/camptothecin viability = 0.335; viability with camptothecin (% of control) = 70.3; Outcome = inactive
VN1R5 #4 | log2 vehicle/camptothecin viability = 0.522; viability with camptothecin (% of control) = 66.3; Outcome = inactive
PPP3CA #1 | log2 vehicle/camptothecin viability = -0.174; viability with camptothecin (% of control) = 113; Outcome = inactive
PPP3CA #2 | log2 vehicle/camptothecin viability = -0.569; viability with camptothecin (% of control) = 81.9; Outcome = inactive
PPP3CA #3 | log2 vehicle/camptothecin viability = -0.305; viability with camptothecin (% of control) = 73.4; Outcome = inactive
PPP3CA #4 | log2 vehicle/camptothecin viability = -0.216; viability with camptothecin (% of control) = 67.9; Outcome = inactive
YY1 #1 | log2 vehicle/camptothecin viability = 0.00299; viability with camptothecin (% of control) = 16.7; Outcome = inactive
YY1 #2 | log2 vehicle/camptothecin viability = -0.0566; viability with camptothecin (% of control) = 98.1; Outcome = inactive
YY1 #3 | log2 vehicle/camptothecin viability = 0.183; viability with camptothecin (% of control) = 66.1; Outcome = inactive
YY1 #4 | log2 vehicle/camptothecin viability = 0.137; viability with camptothecin (% of control) = 60.6; Outcome = inactive
MAP3K6 #1 | log2 vehicle/camptothecin viability = -0.229; viability with camptothecin (% of control) = 61.2; Outcome = inactive
MAP3K6 #2 | log2 vehicle/camptothecin viability = -0.0533; viability with camptothecin (% of control) = 74.4; Outcome = inactive
MAP3K6 #3 | log2 vehicle/camptothecin viability = 0.205; viability with camptothecin (% of control) = 39.6; Outcome = inactive
MAP3K6 #4 | log2 vehicle/camptothecin viability = -0.116; viability with camptothecin (% of control) = 104; Outcome = inactive
TRAPPC4 #1 | log2 vehicle/camptothecin viability = -0.294; viability with camptothecin (% of control) = 67.6; Outcome = inactive
TRAPPC4 #2 | log2 vehicle/camptothecin viability = 0.204; viability with camptothecin (% of control) = 87.3; Outcome = inactive
TRAPPC4 #3 | log2 vehicle/camptothecin viability = -0.239; viability with camptothecin (% of control) = 76.7; Outcome = inactive
TRAPPC4 #4 | log2 vehicle/camptothecin viability = -0.303; viability with camptothecin (% of control) = 28.7; Outcome = inactive

Limited to “log2 vehicle/camptothecin viability”, for 2 of the entries above:
VN1R5 #1	-0.753
VN1R5 #2	-0.0939
